Data reported in patent US20220119511A1, “COMPOSITIONS AND METHODS FOR TREATMENT OF DIABETES, OBESITY, HYPER-CHOLESTEROLEMIA, AND ATHEROSCLEROSIS BY INHIBITION OF SAM68” (The UAB Research Foundation, priority 2020, published 2022).
These are yes or no findings as the source states them, for the method shown. Binding seen in cells or lysates may run through a third protein. Some entries that bind do so weakly or less than the wild type. Where a sequence is shown, tags or fusion partners need not be part of it.

Amino acid sequences for entries named in this document (tags omitted).
UniProt Q60749: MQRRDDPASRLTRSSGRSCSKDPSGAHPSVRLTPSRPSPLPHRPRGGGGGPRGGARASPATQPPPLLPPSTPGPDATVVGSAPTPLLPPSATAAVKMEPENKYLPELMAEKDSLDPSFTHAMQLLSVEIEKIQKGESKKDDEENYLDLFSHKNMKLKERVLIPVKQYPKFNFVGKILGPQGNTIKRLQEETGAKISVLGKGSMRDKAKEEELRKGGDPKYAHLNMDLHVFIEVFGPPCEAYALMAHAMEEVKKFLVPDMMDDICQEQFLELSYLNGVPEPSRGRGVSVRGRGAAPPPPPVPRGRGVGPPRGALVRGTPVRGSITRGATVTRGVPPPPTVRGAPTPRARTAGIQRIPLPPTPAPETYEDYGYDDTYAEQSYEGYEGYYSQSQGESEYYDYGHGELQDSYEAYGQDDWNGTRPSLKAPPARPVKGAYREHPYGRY

Legend:
[1] = molecular target: T1, FLAG-tagged CRTC2 (pcDNA3-Flag-CRTC2) (UniProt Q3U182); test: co-IP in co-transfected 293T cells (FIG. 8C)
T1 sequence (looked up): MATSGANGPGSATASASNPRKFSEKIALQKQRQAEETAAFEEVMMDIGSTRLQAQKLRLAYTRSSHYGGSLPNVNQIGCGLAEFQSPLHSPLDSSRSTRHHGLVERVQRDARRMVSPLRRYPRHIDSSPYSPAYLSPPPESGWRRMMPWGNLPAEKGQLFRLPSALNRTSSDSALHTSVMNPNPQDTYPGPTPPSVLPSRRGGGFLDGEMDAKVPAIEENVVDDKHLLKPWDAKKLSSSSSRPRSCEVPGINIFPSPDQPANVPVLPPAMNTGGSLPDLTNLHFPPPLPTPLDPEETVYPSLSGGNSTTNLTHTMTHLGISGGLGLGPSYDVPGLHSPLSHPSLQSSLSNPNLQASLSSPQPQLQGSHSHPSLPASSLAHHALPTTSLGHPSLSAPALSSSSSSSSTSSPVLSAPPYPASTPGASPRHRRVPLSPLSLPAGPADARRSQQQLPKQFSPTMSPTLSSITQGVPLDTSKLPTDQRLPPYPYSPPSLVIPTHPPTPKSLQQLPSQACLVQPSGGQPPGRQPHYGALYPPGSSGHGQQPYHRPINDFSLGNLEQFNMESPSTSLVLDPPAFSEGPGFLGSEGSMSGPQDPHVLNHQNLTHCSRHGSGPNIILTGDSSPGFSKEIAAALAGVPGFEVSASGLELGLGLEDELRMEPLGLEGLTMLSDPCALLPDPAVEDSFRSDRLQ

[2] = molecular target: T1, FLAG-tagged CRTC2 (pcDNA3-Flag-CRTC2); test: co-IP in co-transfected 293T cells (anti-Flag IP with anti-HA blot, and anti-HA IP with anti-Flag blot)
[3] = molecular target: T1, FLAG-tagged CRTC2 (pcDNA3-Flag-CRTC2); test: co-IP in co-transfected 293T cells (FIG. 7C, 7D)

Measured: binding

hemagglutinin (HA)-tagged Sam68, full-length (pcDNA3-HA-Sam68) (from UniProt Q60749 1-443)
binds: all assays above
